Like-named read-outs stand apart in the source and are kept apart here. No constants are given. Whether binding was seen depends on the method and setting. Binding seen in cells or lysates may run through a third protein. Some entries that bind do so weakly or less than the wild type. For some assays here: Where a sequence is shown, tags or fusion partners need not be part of it.

Chains of the proteins cited; added tags and fusions are not shown. Lines headed by an entry give the natural chain unless they say otherwise; changes in a name come on top.
UniProt Q04206: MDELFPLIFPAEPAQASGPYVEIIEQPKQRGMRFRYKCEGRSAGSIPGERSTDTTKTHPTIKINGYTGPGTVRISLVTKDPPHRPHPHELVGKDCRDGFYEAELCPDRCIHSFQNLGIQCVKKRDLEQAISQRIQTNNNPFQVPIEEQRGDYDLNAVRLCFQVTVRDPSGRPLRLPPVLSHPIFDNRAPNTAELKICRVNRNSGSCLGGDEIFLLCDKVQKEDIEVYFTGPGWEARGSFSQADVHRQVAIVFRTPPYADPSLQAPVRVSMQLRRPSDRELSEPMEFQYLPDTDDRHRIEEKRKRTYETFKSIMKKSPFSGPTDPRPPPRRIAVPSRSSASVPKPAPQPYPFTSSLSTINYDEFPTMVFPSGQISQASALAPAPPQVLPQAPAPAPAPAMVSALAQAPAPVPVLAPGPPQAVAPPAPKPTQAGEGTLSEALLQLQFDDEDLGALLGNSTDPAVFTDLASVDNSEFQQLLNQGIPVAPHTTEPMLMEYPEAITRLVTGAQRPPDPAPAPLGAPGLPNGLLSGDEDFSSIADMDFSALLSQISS
UniProt P34931: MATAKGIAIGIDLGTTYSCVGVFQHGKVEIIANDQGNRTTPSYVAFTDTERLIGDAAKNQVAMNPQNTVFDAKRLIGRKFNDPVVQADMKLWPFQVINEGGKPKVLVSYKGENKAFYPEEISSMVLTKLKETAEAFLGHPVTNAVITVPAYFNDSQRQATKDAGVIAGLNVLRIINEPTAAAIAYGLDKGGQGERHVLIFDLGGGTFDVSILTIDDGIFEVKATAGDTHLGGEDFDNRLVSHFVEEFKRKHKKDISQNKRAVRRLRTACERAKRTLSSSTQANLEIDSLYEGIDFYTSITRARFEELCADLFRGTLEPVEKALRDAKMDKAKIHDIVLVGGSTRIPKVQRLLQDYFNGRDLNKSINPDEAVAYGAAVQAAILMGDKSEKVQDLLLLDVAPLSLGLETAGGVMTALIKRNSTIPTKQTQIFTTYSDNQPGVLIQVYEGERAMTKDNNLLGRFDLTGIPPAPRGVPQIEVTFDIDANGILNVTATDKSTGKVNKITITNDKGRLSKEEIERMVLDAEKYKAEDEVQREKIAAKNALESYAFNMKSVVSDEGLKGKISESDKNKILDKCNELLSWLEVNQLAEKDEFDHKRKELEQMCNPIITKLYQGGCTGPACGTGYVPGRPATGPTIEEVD
UniProt Q9Y6K9: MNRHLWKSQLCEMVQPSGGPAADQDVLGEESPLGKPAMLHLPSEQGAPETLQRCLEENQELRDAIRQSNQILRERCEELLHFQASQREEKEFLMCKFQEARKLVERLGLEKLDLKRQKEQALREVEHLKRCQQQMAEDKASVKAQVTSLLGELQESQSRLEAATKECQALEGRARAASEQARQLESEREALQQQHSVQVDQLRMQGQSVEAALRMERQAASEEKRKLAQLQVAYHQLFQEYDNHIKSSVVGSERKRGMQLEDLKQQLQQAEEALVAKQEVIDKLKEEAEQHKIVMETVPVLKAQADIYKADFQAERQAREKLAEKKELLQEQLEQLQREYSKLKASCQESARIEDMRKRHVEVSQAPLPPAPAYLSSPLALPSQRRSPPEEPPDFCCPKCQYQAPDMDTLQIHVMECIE

For eight molecules, binding results are on record in paper PMC8192522.

In assay [1] the target is T1, GST-tagged FKBP4 (GST-FKBP4) (human) (UniProt Q02790).
T1 sequence: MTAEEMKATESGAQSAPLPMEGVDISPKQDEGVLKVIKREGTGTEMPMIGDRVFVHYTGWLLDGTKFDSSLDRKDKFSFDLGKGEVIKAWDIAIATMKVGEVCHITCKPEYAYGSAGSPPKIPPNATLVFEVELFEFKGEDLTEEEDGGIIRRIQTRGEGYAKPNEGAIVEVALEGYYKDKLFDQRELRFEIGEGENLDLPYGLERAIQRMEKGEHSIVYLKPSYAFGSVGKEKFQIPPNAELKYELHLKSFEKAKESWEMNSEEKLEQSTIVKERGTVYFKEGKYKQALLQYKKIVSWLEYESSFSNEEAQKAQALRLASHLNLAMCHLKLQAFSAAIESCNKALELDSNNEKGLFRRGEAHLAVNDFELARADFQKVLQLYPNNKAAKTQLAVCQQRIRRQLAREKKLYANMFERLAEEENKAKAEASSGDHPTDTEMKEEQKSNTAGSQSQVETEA
Put plainly: pull-down; GST-FKBP4 from bacterial lysate held on glutathione agarose (Pierce GST Protein Interaction Pull-Down Kit), 4 °C, eluted with 10 mM glutathione; source of the HA-tagged prey not stated.

Assay [2] deals with T2, Flag-tagged FKBP4 full-length (Flag-FKBP4-WT) (human) (UniProt Q02790).
T2 sequence: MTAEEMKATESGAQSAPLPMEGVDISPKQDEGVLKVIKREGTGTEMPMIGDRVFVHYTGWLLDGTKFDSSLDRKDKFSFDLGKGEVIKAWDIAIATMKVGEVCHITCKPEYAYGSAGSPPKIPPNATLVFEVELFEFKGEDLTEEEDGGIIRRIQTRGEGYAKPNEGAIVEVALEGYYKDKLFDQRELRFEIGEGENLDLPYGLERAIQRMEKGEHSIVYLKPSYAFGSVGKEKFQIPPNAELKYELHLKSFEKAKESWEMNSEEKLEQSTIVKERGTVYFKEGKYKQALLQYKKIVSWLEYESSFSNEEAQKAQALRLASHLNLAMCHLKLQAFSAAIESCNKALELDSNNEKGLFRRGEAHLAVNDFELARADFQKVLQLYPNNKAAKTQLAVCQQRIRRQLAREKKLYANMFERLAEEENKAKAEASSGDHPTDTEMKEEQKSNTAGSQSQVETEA
Briefly: co-IP; 293T cells transfected with Flag-FKBP4 wild type, ΔPPIase, ΔTPR or K354A; Hsp90 and IKK detected.

In assay [3] the target is T3, Flag-tagged FKBP4-deleted PPIase domains (Flag-FKBP4ΔPPIase; 17-253 AA-truncated mutant) (human) (UniProt Q02790).
T3 sequence: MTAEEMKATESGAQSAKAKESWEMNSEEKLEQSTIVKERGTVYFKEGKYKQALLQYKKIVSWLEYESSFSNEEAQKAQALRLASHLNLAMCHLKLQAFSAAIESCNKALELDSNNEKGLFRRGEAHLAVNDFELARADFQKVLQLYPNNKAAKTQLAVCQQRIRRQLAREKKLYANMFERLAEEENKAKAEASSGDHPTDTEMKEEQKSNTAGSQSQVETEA
The description is as above.

In assay [4] the target is T4, endogenous FKBP4 (human (endogenous in H1975 and BEAS-2B)) (UniProt Q02790).
T4 sequence: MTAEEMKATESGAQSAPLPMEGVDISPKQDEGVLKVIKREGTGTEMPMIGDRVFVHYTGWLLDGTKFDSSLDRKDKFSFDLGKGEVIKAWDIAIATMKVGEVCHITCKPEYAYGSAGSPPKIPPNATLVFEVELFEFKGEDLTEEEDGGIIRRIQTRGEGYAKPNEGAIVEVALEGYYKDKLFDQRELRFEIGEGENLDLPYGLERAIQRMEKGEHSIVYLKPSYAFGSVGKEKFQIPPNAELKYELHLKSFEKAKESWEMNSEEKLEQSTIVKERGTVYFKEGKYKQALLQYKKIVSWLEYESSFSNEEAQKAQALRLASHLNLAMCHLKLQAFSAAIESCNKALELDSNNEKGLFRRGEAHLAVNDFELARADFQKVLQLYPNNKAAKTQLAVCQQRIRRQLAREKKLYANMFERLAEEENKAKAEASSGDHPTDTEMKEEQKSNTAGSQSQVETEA
Put plainly: co-IP; endogenous proteins in H1975 and BEAS-2B cells, endogenous FKBP4 with its partners; lysis buffer 50 mM Tris-HCl pH 7.5, 150 mM NaCl, 1% Triton X-100, 0.1% Na-deoxycholate, 1 mM EDTA, 1 mM DTT.

Assay [5] deals with T2, Flag-tagged FKBP4 full-length (Flag-FKBP4-WT) (human). Put plainly: co-IP; 293T cells co-transfected with Flag-FKBP4 and HA-IKKα, HA-IKKβ, HA-IKKγ or HA-Hsp90; lysis buffer 50 mM Tris-HCl pH 7.5, 150 mM NaCl, 1% Triton X-100, 0.1% Na-deoxycholate, 1 mM EDTA, 1 mM DTT.
Assay [6] deals with T1, GST-tagged FKBP4 (GST-FKBP4) (human). Briefly: pull-down; GST-FKBP4 from bacterial lysate held on glutathione agarose (Pierce GST Protein Interaction Pull-Down Kit), 4 °C, eluted with 10 mM glutathione; source of the HA-tagged prey not stated. The source holds these as a separate data set.
In assay [7] the target is T4, endogenous FKBP4 (human (endogenous in H1975 and BEAS-2B)). Put plainly: co-IP; endogenous proteins in H1975 and BEAS-2B cells, endogenous FKBP4 with its partners; lysis buffer 50 mM Tris-HCl pH 7.5, 150 mM NaCl, 1% Triton X-100, 0.1% Na-deoxycholate, 1 mM EDTA, 1 mM DTT. The source holds these as a separate data set.

As to HA-RelA (from UniProt Q04206 1-551), the binding entry in assay [1] is recorded as “binds”.
On to “Hsp70 (in the GST pull-down with GST-FKBP4) (from UniProt P34931 1-641)”, for which the binding result in assay [1] is “binds”.
For “IKKγ (co-IP with Flag-FKBP4 wild type and mutants in 293T cells, Fig. 4I) (from UniProt Q9Y6K9 1-419)”, the binding entry in assay [2] and in assay [3] was “binds” throughout.
For the molecule “endogenous Hsp70 (HSPA1L) (from UniProt P34931 1-641)”, in assay [4], the binding result is “binds”.
Still for that read-out and setting: as for “endogenous RelA (from UniProt Q04206 1-551)”, the entry is “binds”.
With “hemagglutinin (HA)-tagged IKKγ (from UniProt Q9Y6K9 1-419)”, the binding entry in assay [5] and in assay [1] was “binds” each time.

B1: hemagglutinin (HA)-tagged IKKβ (protein, UniProt O14920 1-756)
chain: MSWSPSLTTQTCGAWEMKERLGTGGFGNVIRWHNQETGEQIAIKQCRQELSPRNRERWCLEIQIMRRLTHPNVVAARDVPEGMQNLAPNDLPLLAMEYCQGGDLRKYLNQFENCCGLREGAILTLLSDIASALRYLHENRIIHRDLKPENIVLQQGEQRLIHKIIDLGYAKELDQGSLCTSFVGTLQYLAPELLEQQKYTVTVDYWSFGTLAFECITGFRPFLPNWQPVQWHSKVRQKSEVDIVVSEDLNGTVKFSSSLPYPNNLNSVLAERLEKWLQLMLMWHPRQRGTDPTYGPNGCFKALDDILNLKLVHILNMVTGTIHTYPVTEDESLQSLKARIQQDTGIPEEDQELLQEAGLALIPDKPATQCISDGKLNEGHTLDMDLVFLFDNSKITYETQISPRPQPESVSCILQEPKRNLAFFQLRKVWGQVWHSIQTLKEDCNRLQQGQRAAMMNLLRNNSCLSKMKNSMASMSQQLKAKLDFFKTSIQIDLEKYSEQTEFGITSDKLLLAWREMEQAVELCGRENEVKLLVERMMALQTDIVDLQRSPMGRKQGGTLDDLEEQARELYRRLREKPRDQRTEGDSQEMVRLLLQAIQSFEKKVRVIYTQLSKTVVCKQKALELLPKVEEVVSLMNEDEKTVVRLQEKRQKELWNLLKIACSKVRGPVSGSPDSMNASRLSQPGQLMSQPSTASNSLPEPAKKSEELVAEAHNLCTLLENAIQDTVREQDQSFTALDWSWLQTEEEEHSCLEQAS
Consider B1, for which the binding result in assay [5] and in assay [6] was “binds” in each case.

B2: endogenous IKKβ (protein, UniProt O14920 1-756)
chain: MSWSPSLTTQTCGAWEMKERLGTGGFGNVIRWHNQETGEQIAIKQCRQELSPRNRERWCLEIQIMRRLTHPNVVAARDVPEGMQNLAPNDLPLLAMEYCQGGDLRKYLNQFENCCGLREGAILTLLSDIASALRYLHENRIIHRDLKPENIVLQQGEQRLIHKIIDLGYAKELDQGSLCTSFVGTLQYLAPELLEQQKYTVTVDYWSFGTLAFECITGFRPFLPNWQPVQWHSKVRQKSEVDIVVSEDLNGTVKFSSSLPYPNNLNSVLAERLEKWLQLMLMWHPRQRGTDPTYGPNGCFKALDDILNLKLVHILNMVTGTIHTYPVTEDESLQSLKARIQQDTGIPEEDQELLQEAGLALIPDKPATQCISDGKLNEGHTLDMDLVFLFDNSKITYETQISPRPQPESVSCILQEPKRNLAFFQLRKVWGQVWHSIQTLKEDCNRLQQGQRAAMMNLLRNNSCLSKMKNSMASMSQQLKAKLDFFKTSIQIDLEKYSEQTEFGITSDKLLLAWREMEQAVELCGRENEVKLLVERMMALQTDIVDLQRSPMGRKQGGTLDDLEEQARELYRRLREKPRDQRTEGDSQEMVRLLLQAIQSFEKKVRVIYTQLSKTVVCKQKALELLPKVEEVVSLMNEDEKTVVRLQEKRQKELWNLLKIACSKVRGPVSGSPDSMNASRLSQPGQLMSQPSTASNSLPEPAKKSEELVAEAHNLCTLLENAIQDTVREQDQSFTALDWSWLQTEEEEHSCLEQAS
For the molecule B2, the binding entry in assay [7] is listed as “binds”.
